Reference: patent US8178087B2, “Process of production of bacteriophage compositions and methods in phage therapy field” (priority 2006, dated 2012)
For at least one compound, name, drawing or mass did not settle the structure.

System: uropathogenic Escherichia coli strain
Assay: antibiotic sensitivity test disks on Petri plate inoculated with child's urine (phage plaques around disks)
Type: cell-based
Conditions: plate inoculated with dilution of child's urine; strain infected by bacteriophages

C=CC1=C(C(=O)O)N2C(=O)[C@@H](NC(=O)/C(=N\OCC(=O)O)c3csc(N)n3)[C@H]2SC1 [CFM, cefixime]
size of phage plaques in the zone of non lethal concentrations of antibiotic that encircled antibiotic disks: much larger
